Experimental data published in the supplement of paper PMC7858590.
± gives the standard deviation of the averaged measurements. The full ranking holds about 3,800 compounds; the median of “cell shape (eccentricity) Z-score vs DMSO control” is about 1.1, and the lowest 2% start at about -4.7. The list shows a part of the results.

What follows are compounds tested on human monocyte-derived macrophages (M0) (assay: cell shape (eccentricity) Z-score vs DMSO control; higher = more elongated, M2-like morphology). Conditions: 20 µM; 24 h; macrophage state: M0 (M-CSF).

Compound | cell shape (Z-score)
COc1cc(O)cc2occ(-c3ccc(O)cc3)c(=O)c12 | 2.08
Clc1ccc(COC(Cn2ccnc2)c2ccc(Cl)cc2Cl)cc1 (stereo unspecified) | -0.401
N=C(N)c1ccc(OCCCCCOc2ccc(C(=N)N)cc2)cc1 | 1.62
CCC1C(=O)O[C@]23C=C[C@@H]4C(C(=O)O)=CO[C@H](OC12)[C@@H]43 (stereo partly specified) | -2.12
O=C(CCCCCCCCc1ccccc1)c1c(O)cc(O)cc1O | 1.39
COC1(C2=NCCN2)COc2ccccc2O1 (stereo unspecified) | 3.52
c1ccc2nc(C3=NCCN3)cnc2c1 | 1.3
CCCCCC1C(=O)O/C(=C\C(=O)O)C1=O (stereo unspecified) | -1.15
CCCC(C(=O)OCCN(CC)CC)(c1ccccc1)c1ccccc1 | 0.759
Cc1cc(C(C)(C)C)c(O)c(C)c1CC1=NCCN1 | 2.32
CN1CCC[C@H]1c1cccnc1 | 1.14
CC1=C(CCC2=CC(=O)OC2O)[C@@]2(C)CCC[C@]3(C)C(=O)OC(C1=O)[C@@H]32 (stereo partly specified) | -2.5
O=c1cc(-c2cc(O)c(O)c(O)c2)oc2cc(O)cc(O)c12 | -3.46
Cc1cccc(C)c1NC(=O)C1CCCCN1C (stereo unspecified) | 2.41
O=C1c2c(O)cc(O)cc2OC(c2ccc(O)cc2)C1C1C(=O)c2c(O)cc(O)cc2OC1c1ccc(O)cc1 (stereo unspecified) | 0.822 ± 0.49
CC1(C)S[C@@H]2[C@H](NC(=O)COc3ccccc3)C(=O)N2[C@H]1C(=O)O | -0.712
CC1=CCC2C(C)(C)CCC[C@]2(C)[C@@]12CC[C@](C)(CC(=O)O)O2 (stereo partly specified) | 0.656
C[C@@H]1CC2C3C[C@H](F)C4=CC(=O)C=C[C@]4(C)[C@@]3(F)[C@@H](O)C[C@]2(C)[C@@]1(O)C(=O)COC(=O)C(C)(C)C (stereo partly specified) | -1.77
COc1ccc(C(=O)O[C@H]2CC(C)=CCC3(C)CC[C@@](O)(C(C)C)[C@H]23)cc1 (stereo partly specified) | -0.32
C=CCN1CCc2cc(O)c(O)cc2C(c2ccccc2)C1 (stereo unspecified) | 1.34
CC(=O)OCC(=O)[C@@]1(O)CCC2C3C[C@H](C)C4=CC(=O)C=CC4(C)C3[C@@H](O)CC21C (stereo partly specified) | -2.52

Compound | cell shape (Z-score)
CC(C)c1c(O)ccc2c1CCC1C(C)(C)CCC[C@]21C (stereo partly specified) | -0.545
CNC1(C)C2CCC(C2)C1(C)C (stereo unspecified) | 0.826
COc1cc(/C=C/c2ccc(OC)c(OC)c2)c(CC=C(C)C)c(OC)c1 | 2.54
CC(C)OC(=O)C1=CN(C(=O)c2ccc(F)c(F)c2)CC(C)(C)c2c1[nH]c1ccccc21 | 2.25
COc1cc(OC)c2c(=O)c(OC)c(-c3ccccc3)oc2c1 | 1.4
CC(=O)O[C@@H]1[C@@H](OC(=O)/C=C/c2ccccc2)[C@@H](OC(C)=O)[C@H](O[C@H]2[C@@H]3C=CO[C@@H](O[C@@H]4O[C@H](CO)[C@@H](O)[C@H](O)[C@H]4O)[C@@H]3[C@@]3(CO)O[C@@H]23)O[C@H]1C | 0.351
CN1CCN2c3ncccc3Cc3ccccc3C2C1 (stereo unspecified) | -1.21
C[C@@H](C1=C(CCN(C)C)Cc2ccccc21)c1ccccn1 | 1.35
CCN(CC)CC#CCOC(=O)C(O)(c1ccccc1)C1CCCCC1 (stereo unspecified) | 1.73
CC1(CO)CC(=O)CC2(C)C3=C(CCC12)C(=O)OC3 (stereo unspecified) | 0.579 ± 2.8
CC(C)Oc1ccc2c(=O)c3cc(C(=O)O)ccc3oc2c1 | 0.453
COc1cc2ccc(=O)oc2cc1OCC(O)C(C)(C)O (stereo unspecified) | -1.07 ± 0.15
c1ccc2c(c1)CCCC2C1=NCCN1 (stereo unspecified) | 3.66
CC1CCN(CCCC(=O)c2ccc(F)cc2)CC1 | -0.124
O=[N+]([O-])c1ccccc1S(=O)(=O)NCC1CCC(CNCC2CCc3ccccc3C2)CC1 (stereo unspecified) | 0.873
CSC(=O)OCC1=C[C@H](O)[C@@H]2C(C(=O)O)=CO[C@@H](OC3OC(CO)C(O)C(O)C3O)[C@H]12 (stereo partly specified) | -0.375
COc1cc(C)c(C(=O)O[C@H]2[C@@H](OC(C)=O)[C@H](n3ccc(=O)[nH]c3=O)O[C@@H]2CO)c(OC)c1 | 1.91 ± 0.92
CC1=CC[C@@]2(C)CC[C@@](O)(C(C)C)[C@@H]2[C@@H](O)C1 | -3.74
NS(=O)(=O)c1cc2c(cc1Cl)NC(C(Cl)Cl)NS2(=O)=O (stereo unspecified) | -1.42
CCN(CC)CCOC(=O)C(Cc1cccc2ccccc12)CC1CCCO1 (stereo unspecified) | 2.72
COC(=O)[C@H]1[C@H]2C[C@@H]3c4[nH]c5cc(OC)ccc5c4CCN3C[C@H]2C[C@@H](OC(=O)c2cc(OC)c(OC)c(OC)c2)[C@@H]1OC | -4.11

A section from further up, for reference:
Compound | cell shape (Z-score)
C[C@@H](C1=C(CCN(C)C)Cc2ccccc21)c1ccccn1 | 1.35
CCN(CC)CC#CCOC(=O)C(O)(c1ccccc1)C1CCCCC1 (stereo unspecified) | 1.73
CC1(CO)CC(=O)CC2(C)C3=C(CCC12)C(=O)OC3 (stereo unspecified) | 0.579 ± 2.8

Following part:

Compound | cell shape (Z-score)
CC(=O)Nc1ccc(S(=O)(=O)Nc2onc(C)c2C)cc1 | 2.8
COc1cc(Nc2c(C#N)cnc3cc(OCCCN4CCN(C)CC4)c(OC)cc23)c(Cl)cc1Cl | 26.7
CC(C)N(CCC(=O)c1ccc2ccccc2c1)Cc1ccccc1 | 2.02
COc1c2ccoc2nc2c(OC)c(OCC(O)C(C)(C)O)ccc12 (stereo unspecified) | 2.45
O=C(/C=C/CCc1ccccc1)CCc1ccccc1 | -0.278 ± 1.9
O=c1cc(-c2ccc(O)cc2)oc2ccc(O)cc12 | 4.02
CC(=O)OCC1=C[C@@H](O)[C@@H]2C=CO[C@@H](OC3OC(CO)C(O)C(O)C3O)[C@H]12 (stereo partly specified) | 2.31
CC(C)=CCC[C@](C)(O[C@@H]1O[C@H](CO[C@@H]2OC[C@H](O)[C@H](O)[C@H]2O)[C@@H](O)[C@H](O)[C@H]1O)[C@H]1CC[C@]2(C)C1[C@H](O)CC1[C@@]3(C)CC[C@H](O[C@@H]4O[C@H](CO)[C@@H](O)[C@H](O)[C@H]4O[C@@H]4O[C@H](CO)[C@@H](O)[C@H](O)[C@H]4O)C(C)(C)C3CC[C@]12C (stereo partly specified) | 2.14
O=C(OC[C@H]1O[C@@H](Oc2ccc(O)cc2)[C@H](O)[C@@H](O)[C@@H]1O)c1ccc(O)cc1 | 0.0126
CC(=C\C(=O)O)/C=C(\C)CC(C)CCCCC(O)C(CO)C(=O)O (stereo unspecified) | 2.02 ± 2.7
COc1cc(OC)c2c(=O)cc(-c3ccccc3)oc2c1 | 2.66
COc1ccc(-c2oc3ccccc3c(=O)c2OC)cc1 | 0.417
CC(C)(O)C(O)COc1c2occc2cc2ccc(=O)oc12 (stereo unspecified) | 1.67 ± 2.2
C=CCN1CCc2nc(N)sc2CC1 | 2.36
CN(C)c1nc(N(C)C)nc(N(C)C)n1 | 0.599
OCC1OC(n2cnc3c(NC4CCCC4)ncnc32)C(O)C1O (stereo unspecified) | 4.05
COc1cc2ncn(-c3cc(OCc4ccccc4S(C)(=O)=O)c(C#N)s3)c2cc1OC | 2.19
NNC(=O)c1ccncc1 | -1.03
Clc1ccc(-c2nc3sccn3c2/C=N/OCc2ccc(Cl)c(Cl)c2)cc1 | 0.243
